What was measured:
[1] = after i.v. or nasal morphine-6-glucuronide; limit of detection 1 ng/ml
Method: Biomed. Appl. 230, 427. […] The limit of quantification of the method is 1 ng/ml for a 0.5 ml plasma sample and the assay is linear over the range of 1 to 1200 ng/ml drug concentration.

[2] = cited from earlier work

SMILES: CN1CC[C@]23c4c5ccc(O)c4O[C@H]2[C@@H](O)C=C[C@H]3[C@H]1C5 [morphine]
- morphine in plasma samples [1]: No morphine was detected
- more typical therapeutic levels in plasma ([2]; more typically): 20 to 100 ng/mL
- usual therapeutic levels in plasma ([2]; usual): 1 to 500 ng/mL
